At least one compound was matched to its structure with a doubt left.
Biological target: T1, 210 kDa Protein (Homo sapiens, UniProt P42345+P62942)
T1 construct: These proteins are isolated from membrane preparations of Molt 4 T cell leukemia; endogenous in cells; host or cells: Molt 4 cells (CHAPSO-solubilized membrane fraction); The partner GST-FKBP12 was made in house in recombinant E. coli (pGEX-FKBP)
Test: Affinity isolation of the 210 kDa protein from Molt 4 membrane preparations with GST-FKBP12 complexed to rapamycin or analog (binding of analog-FKBP12 complexes)
Design: key to the marks not given beside the values
Settings: compound complexed with GST-FKBP12; Molt 4 membrane proteins; SDS-PAGE, silver stain

COC1CC2CCC(C)C(O)(O2)C(=O)C(=O)N2CCCCC2C(=O)OC(C(C)CC2CCC(O)C(OC)C2)CC(=O)C(C)/C=C(\C)C(O)CC(=O)C(C)CC(C)/C=C/C=C/C=C/1C (stereo not shown) [demethoxyrapamycin]
210 kDa (binding of rapamycin analog-FKBP12 complex to 210 kDa protein): +++
